PubChem BioAssay AID540256 (National Center for Advancing Translational Sciences (NCATS), 2011)
Where “and” joins values, the source holds several entries; their conditions need not be identical. Identical values can stand only once. The campaign covered roughly 300,000 compounds. About 3,700 (1.2%) were called active. The shares of active, inactive and inconclusive entries below differ from those in the screen. Calls come from the whole dose curve; tested in HEK293 cells. A potency beside an inconclusive call is a rough fit, not a confirmed value.

Assay: qHTS for Inhibitors of binding or entry into cells for Lassa Virus; note: nearly all actives have a fitted effect of over 50% in size
Conditions: Lassa virus pseudotype entry inhibition, cell reporter; series mostly up to 37.9 µM
Potency is the fitted concentration of half-maximal effect.

| SMILES | Potency |
| --- | --- |
| Cc1cc[n+]2n1CC(O)C2 (centres undefined) | inconclusive: 3.16 µM [inhibitor, full curve, poor fit] |
| COc1cccc(-n2c(-c3ccco3)nc3c(cnn3-c3ccc(Cl)cc3)c2=O)c1 | inconclusive: 35.5 µM [inhibitor, single point] |
| CCn1c(C)c(C)c2cc(C(=O)N3CCN(c4cccc(C)c4C)CC3)ccc21 | inconclusive: 35.5 µM [inhibitor, single point] |
| COc1cccc(NC(=O)COc2ccc(C(=S)N3CCN(C)CC3)cc2OC)c1 | inconclusive: 7.08 µM [inhibitor, partial curve, poor fit] |
| COc1cccc(-c2nn(C)c3sc(C(=O)N4CCN(c5ccccc5)CC4)cc23)c1 | inconclusive: 15.8 µM [inhibitor, single point] |
| COc1cccc(NC(=S)N(CCc2nc3cc(C)c(C)cc3[nH]2)Cc2cccnc2)c1 | inconclusive: 0.116 µM [inhibitor, full curve, poor fit] |
| COc1cccc(N2C(=O)CSC23C(=O)N(CC(=O)Nc2cccc(Cl)c2)c2ccccc23)c1 (centres undefined) | inconclusive: 35.5 µM [inhibitor, single point] |
| O=C(CSc1cn(CCNC(=O)c2ccccc2F)c2ccccc12)Nc1ccc(F)cc1 | inactive |
| COc1ccc(N(CC(=O)NC(C)c2ccccc2)S(=O)(=O)c2ccc(C)cc2)cc1 (centres undefined) | inactive |
| O=C(CCC1CCCC1)Nc1ccc(OCC(=O)N2CCOCC2)cc1 | inconclusive: 0.58 µM [activator, full curve, poor fit] |
| COc1cc(CN(C)Cc2cc(=O)oc3cc(C)c(Cl)cc23)ccc1OC(F)F | inconclusive: 20 µM [inhibitor, partial curve, poor fit] |
| COc1ccc(Cl)cc1NC(=O)Cn1c(=O)n(CCCC(=O)NCCc2ccc(OC)c(OC)c2)c(=O)c2ccccc21 | inconclusive: 35.5 µM [inhibitor, single point] |
| CN(C)S(=O)(=O)c1ccc(C(=O)NCCS(=O)(=O)N2CCN(c3ccc(F)cc3)CC2)cc1 | inactive |
| CS(=O)(=O)N(CC(=O)Nc1ccccc1C(=O)N1CCOCC1)c1cccc([N+](=O)[O-])c1 | inactive |
| CNC1=C(N(C(C)=O)c2ccc(Br)cc2)C(=O)c2ccccc2C1=O | active: 5.62 µM |
| Cc1ccc(N=C2SCCCN2C(=O)C2=COCCO2)cc1Cl | inactive |
| COc1cccc(-n2c(SCC(=O)N3CCCc4ccccc43)nc3c([nH]c4ccccc43)c2=O)c1 | inconclusive: 7.94 µM [inhibitor, partial curve, poor fit] |
| COc1cc(NC(=O)NC(C)c2c(-n3cccc3)sc3c2CCN(C)C3)cc(OC)c1 (centres undefined) | inconclusive: 35.5 µM [inhibitor, single point] |
| C=CCc1cccc(CNc2nc3ccccc3n2CC)c1O | inconclusive: 2.06 µM [activator, partial curve] |
| CCCOc1ccc(CNC(=O)Cn2cc3c(n2)-c2c(oc(C(=O)N4CCOCC4)c2C)CC3)cc1 | inconclusive: 11.2 µM [inhibitor, partial curve, poor fit] |
| NNC(=O)c1cc(C2CC2)nc2ccc(Br)cc12 | inactive |
| CCc1ccc(S(=O)(=O)NCc2nc3cccnc3n2Cc2ccccc2Cl)cc1 | inconclusive: 11.2 µM [inhibitor, partial curve, poor fit] |

| SMILES | Potency |
| --- | --- |
| Nc1ccc2nc(SCC(=O)c3ccccc3)sc2c1 | inconclusive: 28.2 µM [inhibitor, single point] |
| CC12CCC(C(=O)N(Cc3ccccc3)Cc3ccccc3)(OC1=O)C2(C)C (centres undefined) | inconclusive: 15.8 µM [inhibitor, partial curve, poor fit] |
| COc1ccc(NC(=O)c2ccc(Br)c(S(=O)(=O)N3CCOCC3)c2)cc1 | inconclusive: 22.4 µM [inhibitor, single point] |
| Cc1ccc(NC(=O)c2cnc(SCC(=O)NCC3CCCO3)n(C)c2=O)cc1C (centres undefined) | inconclusive: 15.8 µM [inhibitor, single point] |
| COc1cc(C(=O)Nc2ccc(NC(=O)c3ccccc3Cl)nc2)cc(OC)c1OC | inconclusive: 35.5 µM [inhibitor, single point] |
| Cc1[nH]n(-c2ccccc2)c(=O)c1C1(C(F)(F)F)C(=O)N(c2ccccc2)C2=C1C(=O)CC(C)(C)C2 (centres undefined) | inactive |
| N#C/C(=C/c1ccc(N2CCCCC2)o1)c1cccc(F)c1 | inconclusive: 18.3 µM [inhibitor, single point] |
| C=CCN(c1ccccc1)S(=O)(=O)c1cccc(C(=O)Nc2ccncc2)c1 | inconclusive: 15.8 µM [inhibitor, partial curve, poor fit] |
| Cc1cc(C)cc(Nc2ncnc3onc(-c4ccc(F)cc4)c23)c1 | inconclusive: 1.12 µM [inhibitor, partial curve, poor fit] |
| COc1ccc(N=C2S/C(=C\c3cc(C)n(C)c3C)C(=O)N2C)cc1 | active: 4.47 µM |
| CCc1ccc2oc(-c3cccc(NC(=O)C(C)(C)Oc4ccc(Br)cc4)c3)nc2c1 | inconclusive: 2.82 µM [inhibitor, full curve, poor fit] |
| Cc1ccc(S(=O)(=O)c2nc(-c3ccc(F)cc3)oc2SCC(=O)c2ccccc2)cc1 | inconclusive: 6.31 µM [inhibitor, full curve, poor fit] |
| CC(=O)c1sc(N/N=C\c2c(O)ccc3ccccc23)nc1C | inconclusive: 35.5 µM [inhibitor, single point] |
| CCS(=O)(=O)c1nc(S(=O)(=O)c2ccc(C)cc2)c(NC(C)c2ccccc2)s1 (centres undefined) | inconclusive: 6.31 µM [inhibitor, single point] |
| O=c1oc2ccc(Cl)cc2nc1/C=C(\O)c1ccco1 | inactive |
| Cc1ccc(-c2cc(C(F)F)n3ncc(C(=O)N4CCCCC4c4cccnc4)c3n2)cc1 (centres undefined) | inconclusive: 35.5 µM [inhibitor, single point] |
| CC1CCc2c(C(=O)NCc3cccnc3)csc2C1 (centres undefined) | inactive |
| COc1ccccc1CNC(=O)Cc1ccc(OC)c(OC)c1 | inactive |
| O=C(NC1CCCCC1)C(c1cccnc1)N(C(=O)CCl)c1ccccc1Cl (centres undefined) | inconclusive: 31.6 µM [inhibitor, single point] |
| O=C1NC(=O)C2(CCCc3ccc(N(CCCl)CCCl)cc32)N1 (centres undefined) | inconclusive: 3.16 µM [inhibitor, partial curve, poor fit] |
| CCC/C=C(\CCC)C(NC(=O)Cc1ccccc1)c1ccc(C(=O)OC)cc1 (centres undefined) | active: 6.51 µM |
| Cc1ccc(C)c(Nc2nc3c(S(=O)(=O)c4ccc(Br)cc4)nnn3c3ccsc23)c1 | inconclusive: 15.8 µM [inhibitor, single point] |

| SMILES | Potency |
| --- | --- |
| CCn1c(-c2nonc2N)nc2c(C#CC(C)(C)O)nc(OCC(N)c3ccccc3)cc21 (centres undefined) | inconclusive: 7.91 µM [inhibitor, full curve] and inconclusive: 996 nM [inhibitor, full curve] |
| [N-]=[N+]=Nc1ccc(C(=O)CSC[C@H](NC(=O)CC[C@H](N)C(=O)O)C(=O)NCC(=O)O)cc1 | inconclusive: 2.06 µM [inhibitor, full curve] |
| CCc1nnc(NS(=O)(=O)c2ccc(NC(=S)NC(=O)c3ccc(F)cc3)cc2)s1 | inactive |
| Cc1cccc(-n2nnnc2-c2cnccc2C(F)(F)F)c1C | inactive |
| Cc1c(Cl)cccc1-n1c(SCC(=O)NCc2cccs2)nnc1-c1ccncc1 | inconclusive: 35.5 µM [inhibitor, single point] |
| CCOc1cc(NC(=S)Nc2ccc(Cl)cc2)c(OCC)cc1NC(C)=O | inconclusive: 1.26 µM [activator, single point] |
| COCCCNC(=O)c1c(-c2ccccc2)noc1C | inactive |
| O=C(NN=Cc1ccc2c(c1)OCO2)c1ccccc1 | inconclusive: 10 µM [inhibitor, partial curve, poor fit] |
| CN(C)CC1(C)Cc2ccsc2C1O (centres undefined) | inconclusive: 6.31 µM [inhibitor, single point] |
| COc1ccc(N(CC(=O)Nc2ccc3c(c2)OCO3)S(=O)(=O)c2ccc(C)cc2)cc1OC | inconclusive: 20 µM [inhibitor, partial curve, poor fit] |
| Cc1[nH]nc(NCCO)c1[N+](=O)[O-] | inactive |
| COc1ccc(N(C(=O)c2ccc(Cl)cc2)S(=O)(=O)c2ccc(C)cc2)cc1 | inconclusive: 35.5 µM [inhibitor, single point] |
| Cc1cc(C)cc(NC(=O)N2CCC(NC(=O)c3ccccc3C)CC2)c1 | inconclusive: 1.26 µM [activator, partial curve, poor fit] |
| O=C(Nc1ccn(Cc2ccccc2)n1)c1cccc(F)c1 | inconclusive: 10 µM [inhibitor, partial curve, poor fit] |
| CC(=O)Oc1ccc(N2C(=O)CCC2=O)cc1 | inconclusive: 1.26 µM [activator, single point] |
| Cc1ccc(Cn2c(=O)c3ccccc3n3c(CCC(=O)NCCN4CCOCC4)nnc23)cc1 | inactive |
| CCOC(=O)C1CCN(C(C(=O)Nc2ccc3c(c2)OCCO3)c2ccccc2)CC1 (centres undefined) | inconclusive: 5.62 µM [inhibitor, full curve] |
| CNC(=O)Nc1ccc2nc(C)sc2c1 | inactive |
| O=c1c2[nH]c3ccc(F)cc3c2ncn1CCCN1CCOCC1 | inactive |
| CCOc1ccc(CNCc2c(C(=O)O)n(Cc3ccc(OC)cc3)c3ccccc23)cc1 | inconclusive: 22.4 µM [inhibitor, partial curve, poor fit] |
